These are yes or no findings as the source states them, for the method shown. Some entries that bind do so weakly or less than the wild type.
Experiments:
[1] = biological target: Recombinant human p53 (human) (UniProt P04637); experiment: co-IP; as a2/a3 but in the presence of nutlin (HDM2 inhibitor); recombinant proteins; agarose beads conjugated with LZAP or p53 antibodies; blots for HDM2, LZAP, p53; both purified
[2] = biological target: Recombinant human p53 (human) (UniProt P04637); experiment: co-IP; about 100 ng of each recombinant protein in PBS, 0.05% Triton X100, 100 mM NaCl, 0.05% BSA, 1 h at 4°C; precipitated with DO1 (p53 antibody) agarose; blots for HDM2, LZAP, p53, GST; both purified

B1: Recombinant LZAP (protein, UniProt Q96JB5 1-506)
chain: MEDHQHVPIDIQTSKLLDWLVDRRHCSLKWQSLVLTIREKINAAIQDMPESEEIAQLLSGSYIHYFHCLRILDLLKGTEASTKNIFGRYSSQRMKDWQEIIALYEKDNTYLVELSSLLVRNVNYEIPSLKKQIAKCQQLQQEYSRKEEECQAGAAEMREQFYHSCKQYGITGENVRGELLALVKDLPSQLAEIGAAAQQSLGEAIDVYQASVGFVCESPTEQVLPMLRFVQKRGNSTVYEWRTGTEPSVVERPHLEELPEQVAEDAIDWGDFGVEAVSEGTDSGISAEAAGIDWGIFPESDSKDPGGDGIDWGDDAVALQITVLEAGTQAPEGVARGPDALTLLEYTETRNQFLDELMELEIFLAQRAVELSEEADVLSVSQFQLAPAILQGQTKEKMVTMVSVLEDLIGKLTSLQLQHLFMILASPRYVDRVTEFLQQKLKQSQLLALKKELMVQKQQEALEEQAALEPKLDLLLEKTKELQKLIEADISKRYSGRPVNLMGTSL
[1]
  binding: binds
[2]
  binding: binds
